Data: PubChem BioAssay (Tox21)
“And” between values parts separate entries of the source, which are not always exact repeats. Identical values can stand only once. This list was built around the results that the source calls inconclusive (neither active nor inactive); the mix of calls is not that of the screen. Potencies beside an inconclusive call are fits to weak or partial responses and may not hold up. The source made the active and inactive calls. Calls come from the whole dose curve; as a rule, active = well fitted inhibition curve with a large enough effect in the repeat runs; inconclusive = weak or mixed curves; inactive = no such curve, though single readings can be large or run the other way.

The chains behind the UniProt entries cited, without tags or fusion partners.
UniProt P10635, whole entry, looked up: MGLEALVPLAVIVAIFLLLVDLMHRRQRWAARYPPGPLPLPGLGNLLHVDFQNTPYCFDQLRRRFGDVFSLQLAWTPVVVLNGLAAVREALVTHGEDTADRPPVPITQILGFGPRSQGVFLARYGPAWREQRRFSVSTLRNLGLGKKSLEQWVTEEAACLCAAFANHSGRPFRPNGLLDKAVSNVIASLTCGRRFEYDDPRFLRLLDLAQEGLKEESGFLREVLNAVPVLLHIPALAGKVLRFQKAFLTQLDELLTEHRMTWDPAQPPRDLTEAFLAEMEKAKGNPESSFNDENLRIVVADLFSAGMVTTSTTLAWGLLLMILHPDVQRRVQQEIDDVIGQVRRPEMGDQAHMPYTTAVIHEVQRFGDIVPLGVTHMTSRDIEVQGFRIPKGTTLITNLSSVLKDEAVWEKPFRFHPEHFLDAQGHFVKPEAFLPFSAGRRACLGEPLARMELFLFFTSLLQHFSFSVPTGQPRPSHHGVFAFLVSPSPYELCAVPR
UniProt P33261, whole entry, looked up: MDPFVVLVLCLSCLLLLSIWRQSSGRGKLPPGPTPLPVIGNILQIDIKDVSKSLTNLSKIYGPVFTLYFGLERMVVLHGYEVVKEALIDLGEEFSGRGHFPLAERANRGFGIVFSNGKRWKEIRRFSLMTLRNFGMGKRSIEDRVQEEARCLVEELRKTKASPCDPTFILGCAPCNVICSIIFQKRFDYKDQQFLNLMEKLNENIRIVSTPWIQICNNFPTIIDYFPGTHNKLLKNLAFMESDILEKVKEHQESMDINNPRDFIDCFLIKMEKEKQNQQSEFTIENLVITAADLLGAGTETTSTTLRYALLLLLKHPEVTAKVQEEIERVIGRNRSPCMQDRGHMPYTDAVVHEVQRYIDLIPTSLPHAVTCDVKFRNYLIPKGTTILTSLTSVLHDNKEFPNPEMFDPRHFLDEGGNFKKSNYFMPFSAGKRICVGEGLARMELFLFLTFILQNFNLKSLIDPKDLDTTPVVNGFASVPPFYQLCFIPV
UniProt P11712, whole entry, looked up: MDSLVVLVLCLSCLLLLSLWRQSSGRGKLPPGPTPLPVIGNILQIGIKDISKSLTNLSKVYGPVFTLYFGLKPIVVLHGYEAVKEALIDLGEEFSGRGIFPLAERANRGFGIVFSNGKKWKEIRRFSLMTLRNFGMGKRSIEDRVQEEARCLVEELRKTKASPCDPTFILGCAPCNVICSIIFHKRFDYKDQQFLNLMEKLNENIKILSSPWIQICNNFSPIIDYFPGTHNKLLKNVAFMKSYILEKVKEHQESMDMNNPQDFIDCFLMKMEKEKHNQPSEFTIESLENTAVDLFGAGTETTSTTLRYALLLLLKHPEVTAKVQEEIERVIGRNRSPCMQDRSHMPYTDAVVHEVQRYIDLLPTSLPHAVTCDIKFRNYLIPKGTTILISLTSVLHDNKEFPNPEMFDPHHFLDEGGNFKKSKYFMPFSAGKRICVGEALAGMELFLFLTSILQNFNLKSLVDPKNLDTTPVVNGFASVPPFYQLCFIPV

Target: Cytochrome P450 2D6 (Homo sapiens) (UniProt P10635)
Test: Cytochrome P450 Family 2 Subfamily D Member 6 (CYP2D6) small molecule antagonists: luciferase reporter qHTS assay (AID 1671196); note: nearly all actives have a fitted effect of over 50% in size
Conditions: P450-Glo CYP2D6 enzyme assay, luciferin luminescence, 1 h; series mostly up to 115 µM
Summary of the method: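 Luminescence (RLU), read 20 min after detection reagent, indicated CYP2D6 conversion of proluciferin to luciferin during a 1 h NADPH-dependent reaction at room temperature.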
Potency is the fitted concentration of half-maximal effect.

SMILES	Potency
CC(CCc1ccc2c(c1)OCO2)NN (stereo not drawn)	active: 30.9 µM
C=CC(=O)OCCCCCCCC(C)C	inconclusive: 89.4 µM [inhibitor, single point]
[O]=[Zr]	inconclusive: 28.1 µM [inhibitor, full curve]
O=S(=O)(O)CCCN1CCOCC1	inactive
c1ccc(CCCc2ccncc2)cc1	active: 4.48 µM
CC(=O)OCC(=O)NCCCOc1cccc(CN2CCCCC2)c1	active: 15.5 µM
FC(F)(F)c1ccccc1Cl	active: 46 µM
NC(N)=S	inconclusive: 89.4 µM [inhibitor, partial curve, poor fit]
O=CC(=O)c1ccccc1	active: 12.6 µM
CCC1(CO)COCOC1	inactive
CO[C@]1(NC(=O)CSC(F)F)C(=O)N2C(C(=O)O)=C(CSc3nnnn3CCO)CO[C@H]21	inconclusive: 43.6 µM [inhibitor, partial curve, poor fit]
OC/C(Br)=C(\Br)CO	active: 35.3 µM
CCOCC(=O)O	active: 32.4 µM and active: 31.7 µM
Nc1nc2ccccc2[nH]1	inconclusive: 40 µM [inhibitor, partial curve]
C=CCc1ccccc1OCC(O)CNC(C)C (stereo not drawn)	active: 5.49 µM
O=c1cc(-c2ccccc2)oc2cc(O)cc(O)c12	inconclusive: 71 µM [inhibitor, partial curve]
COC(=O)c1ccccc1	inactive
O=C(O)Cc1cn(-c2ccccc2)nc1-c1ccc(Cl)cc1	inactive
O=C(O)C1CCC(C(=O)O)CC1 (stereo not drawn)	inconclusive: 70.8 µM [inhibitor, single point]
Oc1ccc(C2CNCCc3c2cc(O)c(O)c3Cl)cc1 (stereo not drawn)	inconclusive: 15.5 µM [inhibitor, partial curve]
COC(=O)c1cc(Cl)ccc1OC	inconclusive: 43.6 µM [inhibitor, single point]
Nc1ncnc2nc[nH]c12	inactive
CCCCCCCCO[C@@H]1O[C@H](CO)[C@@H](O)[C@H](O)[C@H]1O	inactive
COc1c(Br)cc(Br)c(C)c1Br	inactive
O=C(O)CCCCCCC(=O)O	active: 35.9 µM
CCCC1CCC(=O)CC1	inactive
CCCNC(C)C(=O)Nc1ccccc1C (stereo not drawn)	active: 27.5 µM

Target: Cytochrome P450 2C19 (Homo sapiens) (UniProt P33261)
Test: Cytochrome P450 Family 2 Subfamily C Member 19 (CYP2C19) small molecule antagonists: luciferase reporter qHTS assay (AID 1671197); note: nearly all actives have a fitted effect of over 65% in size
Conditions: P450-Glo CYP2C19 enzyme, luciferin luminescence, 1 h; series mostly up to 115 µM
Summary of the method: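 P450-Glo CYP2C19 system: enzyme-substrate mix with compound 10 min at room temperature, then NADPH regeneration solution, 1 h at 37C. Proluciferin-to-luciferin conversion detected by luminescence after 20 min with detection reagent; ketoconazole as positive control.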

SMILES	Potency
CC(C)NNC(=O)c1ccncc1	inconclusive: 43.6 µM [inhibitor, single point]
Cc1cccc(O)c1N	active: 40.3 µM
Oc1cc2c(cc1O)[C@H]1c3ccc(O)c(O)c3OC[C@@]1(O)C2	inconclusive: 90.5 µM [inhibitor, single point]
C1C[C@@H]2[C@H]3CC[C@H](C3)[C@@H]2C1	inconclusive: 89.6 µM [inhibitor, single point]
COC(=O)c1ccccc1C(=O)O	inconclusive: 79.6 µM [inhibitor, single point]
O=C(O)c1cccc([N+](=O)[O-])c1	inconclusive: 50 µM [inhibitor, partial curve, poor fit] and inconclusive: 63.3 µM [inhibitor, partial curve]
Cc1ncc(CO)c(CO)c1O	inactive
C=CC(=O)OCCCCCCCC(C)C	inactive and inconclusive: 89.4 µM [inhibitor, single point]
[O]=[Zr]	inconclusive: 89 µM [inhibitor, single point]
CC(=O)OCC(=O)NCCCOc1cccc(CN2CCCCC2)c1	inactive
FC(F)(F)c1ccccc1Cl	inconclusive: 81.7 µM [inhibitor, single point]
NC(N)=S	inconclusive: 89.4 µM [inhibitor, single point]
O=CC(=O)c1ccccc1	active: 35.6 µM
CCC1(CO)COCOC1	inconclusive: 70.7 µM [inhibitor, partial curve, poor fit]
OC/C(Br)=C(\Br)CO	active: 31.5 µM
CCOCC(=O)O	inactive
Nc1nc2ccccc2[nH]1	inactive
C=CCc1ccccc1OCC(O)CNC(C)C (stereo not drawn)	inactive
Cc1ccc(O)c(-n2nc3ccccc3n2)c1	inconclusive: 9.77 µM [inhibitor]
O=C(O)Cc1cn(-c2ccccc2)nc1-c1ccc(Cl)cc1	inconclusive: 43.6 µM [inhibitor, single point]
Nc1ncnc2nc[nH]c12	inactive
O=C(O)CCCCCCC(=O)O	inconclusive: 90.2 µM [inhibitor, single point]

Target: Cytochrome P450 2C9 (Homo sapiens) (UniProt P11712)
Test: Cytochrome P450 Family 2 Subfamily C Member 9 (CYP2C9) small molecule antagonists: luciferase reporter qHTS assay (AID 1671198); note: nearly all actives have a fitted effect of over 50% in size
Conditions: P450-Glo CYP2C9 enzyme assay, luciferin luminescence; series mostly up to 115 µM
Summary of the method: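 P450-Glo proluciferin substrate with CYP2C9 enzyme; 10 min RT preincubation, then NADPH regeneration 1 h at 37C; luciferin detection reagent 20 min RT, luminescence in relative luminescence units.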

SMILES	Potency
CC(C)NNC(=O)c1ccncc1	inconclusive: 8.71 µM [inhibitor, full curve, poor fit]
COC(=O)c1ccccc1C(=O)O	inconclusive: 89.4 µM [inhibitor, single point]
O=C(O)c1cccc([N+](=O)[O-])c1	inactive
C=CC(=O)OCCCCCCCC(C)C	inactive
[O]=[Zr]	inconclusive: 79.3 µM [inhibitor, partial curve, poor fit]
NC(N)=S	inconclusive: 63.3 µM [inhibitor, partial curve]
CCC1(CO)COCOC1	inactive
C=CCc1ccccc1OCC(O)CNC(C)C (stereo not drawn)	inactive
